Values joined by “and” are separate entries in the source; they are usually repeats but may differ in a detail not shown here. Identical values can stand only once. The whole screen tested about 300,000 compounds, of which about 3,700 (1.2%) were called active. The inconclusive results got no clear call from the source; some entries with a clear call stand among them for comparison. Calls come from the whole dose curve; tested in HEK293 cells. Potencies beside an inconclusive call are fits to weak or partial responses and may not hold up.
assay: qHTS for Inhibitors of binding or entry into cells for Lassa Virus; settings: Lassa virus pseudotype entry inhibition, cell reporter; series mostly up to 37.9 µM; note: nearly all actives have a fitted effect of over 50% in size
Potency is the fitted concentration of half-maximal effect.

Row | SMILES | Potency
1 | O=[N+]([O-])c1cccc(/C=N/N2CCN(c3ccccn3)CC2)c1 | inactive
2 | COc1cc(-c2cc(C(=O)Nc3cccc(C(C)=O)c3)c3ccccc3n2)cc(OC)c1OC | inconclusive: 1.78 µM [inhibitor, full curve, poor fit]
3 | CCC(Cc1ccccc1)NC(=O)c1oc(=O)c2ccccc2c1-c1ccccc1 (stereo not drawn) | inconclusive: 35.5 µM [inhibitor, single point]
4 | CC(Sc1nncn1C)C(=O)Nc1ccc(Cl)cn1 (stereo not drawn) | inconclusive: 0.0259 µM [inhibitor, full curve, poor fit]
5 | COc1cccc(C(C(=O)NC(C)(C)C)N(C(=O)CCC(=O)Nc2cc(C)on2)C(C)(C)C)c1OC (stereo not drawn) | inconclusive: 20 µM [inhibitor, partial curve]
6 | O=C(N/N=C/c1cccnc1)c1cccc(F)c1 | inactive
7 | O=C(Nc1ccnc(-c2ccncc2)n1)C1CC1 | inconclusive: 1.58 µM [inhibitor, full curve]
8 | O=C1NC2C(O)C(O)C(O)C(O)C2c2cc3c(c(O)c21)OCO3 (stereo not drawn) | active: 0.141 µM
9 | O=C(O)C12CC3CC(C1)CC(n1ncc(NCc4ccco4)c(Cl)c1=O)(C3)C2 | inconclusive: 14.1 µM [activator, single point]
10 | Nc1nc(NCc2ccco2)nn1-c1ccccc1 | inactive
11 | CCCSc1cc(N2CCN(C)CC2)nc(-c2ccc(OC)cc2)n1 | inconclusive: 35.5 µM [inhibitor, single point]
12 | COc1cc(OC)cc(C(=O)N[C@H](C(=O)NC2=NCCS2)C(C)C)c1 | inactive
13 | Cc1nc(N)nc(N)c1-c1ccc(Cl)c(Cl)c1 | active: 1 µM
14 | Cc1cccc(-c2nnc(SCC(=O)N3CCOCC3)o2)c1 | inconclusive: 5.62 µM [inhibitor, single point]
15 | CC1=NNC(=O)/C1=C\c1cn(-c2ccccc2)nc1-c1ccccc1 | inconclusive: 35.5 µM [inhibitor, single point]
16 | Cc1nn(-c2ccccc2)c(N2CCCC2)c1/C=N/NC(=O)c1ccccc1O | inconclusive: 15.8 µM [inhibitor, partial curve, poor fit]
17 | Cc1nonc1CN(C)C(=O)c1cc(COc2ccc(F)cc2Cl)on1 | inconclusive: 25.1 µM [inhibitor, single point]
18 | Cc1ccc(-n2nc3ccc(NC(=O)c4cc5ccccc5o4)cc3n2)cc1 | inactive
19 | Cn1c(=O)c2sccc2n2c(CCC(=O)N3CCN(c4ccccc4)CC3)nnc12 | inconclusive: 14.1 µM [inhibitor, single point]
20 | CCC(=O)Nc1sc2c(c1C(=O)Nc1ccccc1C)CCC(C)C2 (stereo not drawn) | inconclusive: 12.6 µM [activator, single point]
21 | CCOc1ccc(CN2CCN(S(=O)(=O)c3ccc(NC(C)=O)cc3)CC2)cc1 | inconclusive: 11.2 µM [inhibitor, partial curve, poor fit]
22 | O=c1[nH]nc(-c2ccc(NCCO)c([N+](=O)[O-])c2)c2ccccc12 | inactive
23 | CCOc1ccc(CNC(=O)c2ccc(NC(=O)c3nsc4ccccc34)cc2)cc1 | inactive

Row | SMILES | Potency
24 | Cc1sc(NC(=O)C2CSC3(C)CCC(=O)N23)nc1-c1ccc(F)cc1 (stereo not drawn) | inconclusive: 35.5 µM [inhibitor, single point]
25 | CCOC(=O)Cn1cc2c(c1-c1ccc(Cl)cc1)c(=O)n(C)c(=O)n2C | inactive
26 | O=C(CSc1ccc(Br)c2cccc(Cl)c12)Nc1ccc(S(=O)(=O)Nc2nccs2)cc1 | inconclusive: 35.5 µM [inhibitor, single point]
27 | CCc1noc2nc(C)n(CC(=O)O)c(=O)c12 | inactive
28 | CCN(CC)CCCNC(=O)c1c(C)oc2ncnc(N3CCOCC3)c12 | inactive
29 | CCCCN(Cc1ccccc1)S(=O)(=O)c1ccc2c(c1)CC(C)N2C(=O)CC (stereo not drawn) | inconclusive: 6.31 µM [inhibitor, full curve]
30 | O=C(Cc1cccs1)NCCSc1c(-c2ccc(Cl)cc2)[nH]c2ccccc12 | active: 16.4 µM
31 | O=C(/C=C/c1ccco1)Nc1ccc(S(=O)(=O)N2CCOCC2)cc1 | inactive
32 | Cn1c(-c2cccc(OCc3ccccc3)c2)nc2c1c(=O)[nH]c(=O)n2Cc1ccccc1 | inconclusive: 0.112 µM [inhibitor, full curve, poor fit]
33 | COc1ccccc1CNC(=O)C(=O)NCCC1CCCCN1S(=O)(=O)c1cccs1 (stereo not drawn) | inconclusive: 2.82 µM [inhibitor, full curve, poor fit]
34 | COc1ccccc1N(CC(=O)NCc1ccccc1)C(=O)CCC(=O)Nc1nccs1 | inconclusive: 1.12 µM [inhibitor, full curve, poor fit]
35 | O=C(Cn1c(=O)sc2ccccc21)Nc1nc2c(s1)CCCC2 | inconclusive: 29.1 µM [inhibitor, single point] and inconclusive: 3.16 µM [inhibitor, partial curve, poor fit]
36 | O=C1C=C(N2CCN(c3ccccn3)CC2)C(=O)c2c(O)ccc(O)c21 | inconclusive: 35.5 µM [inhibitor, single point]
37 | Cc1cccc(NC(=S)N(C)Cc2cn(C)c3ccccc23)c1 | inconclusive: 18.4 µM [inhibitor, partial curve, poor fit]
38 | O=S(=O)(NCC(c1ccco1)N1CCN(c2ccc(F)cc2)CC1)c1ccccc1 (stereo not drawn) | inconclusive: 12.6 µM [inhibitor, partial curve, poor fit]
39 | CCn1c(=N)c(C(=O)NCc2cccnc2)cc2c(=O)n3cc(C)ccc3nc21 | inconclusive: 2.51 µM [activator, full curve, poor fit]
40 | COc1ccc(-c2cc(C(=O)Nc3cc(C)ccc3O)no2)cc1OC | inactive
41 | COC(=O)c1sccc1NC(=O)Nc1ccccc1Cl | inactive
42 | COc1ccc(OC)c(S(=O)(=O)N2CCC(C(=O)NC3CCCC3)CC2)c1 | inconclusive: 3.16 µM [inhibitor, single point]
43 | Cc1cccc(C)c1NC(=O)CCCSc1nc2ccccc2s1 | inconclusive: 0.708 µM [inhibitor, single point]
44 | COC(=O)c1ccc(C(=O)OC)c(NC(=O)N2c3ccccc3Sc3ccccc32)c1 | inconclusive: 29.1 µM [inhibitor, single point]
45 | CCC1(CC)C(=O)N(Cc2ccccc2)C(=O)N(Cc2ccccc2)C1=O | inconclusive: 4.11 µM [inhibitor, full curve, poor fit]
46 | COc1ccccc1-c1cc(C(F)(F)F)nc(S(=O)(=O)CCCC(=O)Nc2cccnc2Cl)n1 | inconclusive: 35.5 µM [inhibitor, partial curve, poor fit]

Row | SMILES | Potency
47 | CCS(=O)(=O)N1Cc2ccccc2CC1C(=O)Nc1nc2ccccc2[nH]1 (stereo not drawn) | inconclusive: 32.6 µM [inhibitor, partial curve, poor fit]
48 | COc1ccc(Cc2nnc(-c3ccccc3)o2)cc1 | inactive
49 | O=C(COc1ccccc1[N+](=O)[O-])Nc1ccccc1N1CCCCC1 | inconclusive: 25.1 µM [inhibitor, single point]
50 | CCOc1ccccc1N(C(=O)Cn1nnnc1-c1ccc(C)o1)C(CC)C(=O)NC(C)(C)C (stereo not drawn) | inconclusive: 20.6 µM [inhibitor, single point]
51 | O=C(N/N=C1/CC2C=CCC12)c1ccc(Br)o1 (stereo not drawn) | inconclusive: 6.51 µM [activator, single point]
52 | COC(=O)C(C(C)=O)C1=C/C(=N\S(=O)(=O)c2ccc(C)cc2)c2ccccc2C1=O (stereo not drawn) | inactive
53 | CCN1CCN(C(=S)Nc2ccc(Cl)cc2Cl)CC1 | inactive
54 | CCOC(=O)C(=CNc1ccc(S(N)(=O)=O)cc1)C(=O)OCC | inconclusive: 35.5 µM [inhibitor, single point]
55 | Cc1ccc(CNc2ncnc3c2c(-c2ccccc2)cn3-c2cccc(Cl)c2)cc1 | inactive
56 | Oc1ccc(Cl)cc1Sc1cc(Cl)ccc1O | inconclusive: 11.2 µM [inhibitor, partial curve]
57 | O=C(N/N=C/c1ccccc1O)C1CC(=O)N(c2ccc(F)cc2)C1 (stereo not drawn) | inconclusive: 11.2 µM [inhibitor, partial curve, poor fit]
58 | Nc1ccccc1C(=O)NCCCN1CCOCC1 | inactive
59 | c1ccc(C(c2cccs2)c2c[nH]c3ccccc23)cc1 (stereo not drawn) | inconclusive: 8.91 µM [inhibitor, single point]
60 | O=c1c(-c2ccc3c(c2)OCCO3)coc2c(CN3CCOCC3)c(O)ccc12 | inactive
61 | CCCn1c(C)cc(C(=O)CSc2nc3ccccc3c(=O)n2Cc2ccco2)c1C | inconclusive: 35.5 µM [inhibitor, single point]
62 | CSc1ccccc1OCc1cc(C(=O)N(C)Cc2nonc2C)no1 | inactive
63 | Cc1cc(C)cc(C(=O)N2CC(=O)Nc3ccc(C)cc3C2c2ccccc2)c1 (stereo not drawn) | inconclusive: 5.62 µM [activator, full curve, poor fit]
64 | S=c1[nH]nc(CCc2ccccc2)n1-c1ccc(Cl)cc1 | inconclusive: 5.62 µM [inhibitor, full curve, poor fit]
65 | CC(=O)c1csc(COc2cc(Cl)cc(Cl)c2)n1 | inconclusive: 6.31 µM [activator, single point]
66 | COc1ccccc1NC(=S)NC(=O)CC(C)C | inactive
67 | Cc1ccc(Oc2c(C)nc(-c3ccccc3)[nH]c2=O)cc1 | inconclusive: 11.2 µM [inhibitor, partial curve]
68 | CC(C)(C)OC(=O)N1CCC(c2c(C(=O)N3CCc4ccccc4C3)cnn2-c2ccc(Cl)cc2)CC1 | inconclusive: 1.58 µM [inhibitor, full curve, poor fit]
